Test results: publication PMC12736948
These are yes or no findings as the source states them, for the method shown. Binding seen in cells or lysates may run through a third protein. Some binding calls cover weakened binding; strength is not graded here.

Sequences of proteins named here, by UniProt entry; tags and fusion partners are left off. Residues count along the entry.
UniProt Q8CGK5, residues 21-535: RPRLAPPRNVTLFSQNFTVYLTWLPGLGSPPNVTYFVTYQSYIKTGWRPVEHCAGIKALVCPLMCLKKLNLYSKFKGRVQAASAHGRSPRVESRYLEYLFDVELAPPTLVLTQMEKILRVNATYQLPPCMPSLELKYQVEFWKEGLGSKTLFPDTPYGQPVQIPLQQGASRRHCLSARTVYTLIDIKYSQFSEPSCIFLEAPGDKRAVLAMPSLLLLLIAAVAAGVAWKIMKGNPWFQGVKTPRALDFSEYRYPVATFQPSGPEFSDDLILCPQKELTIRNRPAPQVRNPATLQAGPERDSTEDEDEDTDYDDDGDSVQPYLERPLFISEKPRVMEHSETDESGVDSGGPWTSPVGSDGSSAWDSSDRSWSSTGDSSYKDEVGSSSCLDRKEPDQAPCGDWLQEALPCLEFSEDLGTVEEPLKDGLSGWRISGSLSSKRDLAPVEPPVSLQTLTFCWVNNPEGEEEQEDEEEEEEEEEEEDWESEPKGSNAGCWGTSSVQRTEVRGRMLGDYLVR

Tests used:
[1] = target: T1, Phospholipid scramblase 1 (Plscr1), mouse (mouse (endogenous in mouse lung)) (UniProt Q9JJ00); assay: proximity ligation
T1 sequence: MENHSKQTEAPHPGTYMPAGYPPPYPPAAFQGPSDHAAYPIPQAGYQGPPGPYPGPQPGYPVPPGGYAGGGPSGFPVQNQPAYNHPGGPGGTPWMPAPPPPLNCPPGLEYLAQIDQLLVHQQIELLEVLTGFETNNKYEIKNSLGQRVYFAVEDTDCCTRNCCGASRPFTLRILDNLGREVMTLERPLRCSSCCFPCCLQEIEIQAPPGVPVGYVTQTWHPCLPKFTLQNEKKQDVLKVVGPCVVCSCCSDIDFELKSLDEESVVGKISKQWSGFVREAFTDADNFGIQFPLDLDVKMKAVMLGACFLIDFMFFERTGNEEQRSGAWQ

[2] = target: T1, Phospholipid scramblase 1 (Plscr1), mouse (mouse (endogenous in mouse lung)); assay: co-IP; 500 μg of mouse lung lysate (RIPA buffer), uninfected or IAV-infected WT mice; anti-Plscr1 polyclonal antibody or control IgG on Catch and Release v2.0 spin columns, 4 °C overnight; western blot for Ifn-λr1
[3] = target: PLSCR1(F281A), transduced into PLSCR1-/- A549 cells (UniProt O15162); assay: proximity ligation
[4] = target: PLSCR1(H262Y), transduced into PLSCR1-/- A549 cells (UniProt O15162); assay: proximity ligation
[5] = target: T2, PLSCR1(WT), transduced into PLSCR1-/- A549 cells (UniProt O15162); assay: proximity ligation
T2 sequence: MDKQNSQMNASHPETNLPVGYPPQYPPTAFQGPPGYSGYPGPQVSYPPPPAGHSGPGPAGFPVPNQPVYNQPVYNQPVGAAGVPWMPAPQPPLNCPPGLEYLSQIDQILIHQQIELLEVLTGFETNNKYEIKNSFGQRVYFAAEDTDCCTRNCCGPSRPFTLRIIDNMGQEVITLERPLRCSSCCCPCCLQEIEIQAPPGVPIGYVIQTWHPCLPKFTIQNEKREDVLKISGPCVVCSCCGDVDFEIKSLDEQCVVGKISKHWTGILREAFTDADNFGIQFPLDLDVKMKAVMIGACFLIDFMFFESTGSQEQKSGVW

[6] = target: T3, Phospholipid scramblase 1 (PLSCR1), endogenous in PLSCR1+/+ A549 cells (human (endogenous in A549)) (UniProt O15162); assay: proximity ligation
T3 sequence: T2 sequence

Measured: binding

Interferon-lambda receptor 1 (Ifn-λr1), mouse (from UniProt Q8CGK5 21-535)
binds: [1] | [2]

B1: Interferon-lambda receptor 1 (IFN-λR1), endogenous in A549 cells (receptor, UniProt Q8IU57 21-520)
chain: RPRLAPPQNVTLLSQNFSVYLTWLPGLGNPQDVTYFVAYQSSPTRRRWREVEECAGTKELLCSMMCLKKQDLYNKFKGRVRTVSPSSKSPWVESEYLDYLFEVEPAPPVLVLTQTEEILSANATYQLPPCMPPLDLKYEVAFWKEGAGNKTLFPVTPHGQPVQITLQPAASEHHCLSARTIYTFSVPKYSKFSKPTCFLLEVPEANWAFLVLPSLLILLLVIAAGGVIWKTLMGNPWFQRAKMPRALDFSGHTHPVATFQPSRPESVNDLFLCPQKELTRGVRPTPRVRAPATQQTRWKKDLAEDEEEEDEEDTEDGVSFQPYIEPPSFLGQEHQAPGHSEAGGVDSGRPRAPLVPSEGSSAWDSSDRSWASTVDSSWDRAGSSGYLAEKGPGQGPGGDGHQESLPPPEFSKDSGFLEELPEDNLSSWATWGTLPPEPNLVPGGPPVSLQTLTFCWESSPEEEEEARESEIEDSDAGSWGAESTQRTEDRGRTLGHYMAR
binds: [3] | [4] | [5] | [6]
